The supplement of paper PMC12067093, “Discovery and optimisation of a covalent ligand for TRIM25 and its application to targeted protein ubiquitination” (Chemical Science, 2025)
Some of the results follow.

Sequences of proteins named here, by UniProt entry; tags and fusion partners are left off. A change or cut given only in a name is not applied to a line headed by its entry.
UniProt Q8TBB5: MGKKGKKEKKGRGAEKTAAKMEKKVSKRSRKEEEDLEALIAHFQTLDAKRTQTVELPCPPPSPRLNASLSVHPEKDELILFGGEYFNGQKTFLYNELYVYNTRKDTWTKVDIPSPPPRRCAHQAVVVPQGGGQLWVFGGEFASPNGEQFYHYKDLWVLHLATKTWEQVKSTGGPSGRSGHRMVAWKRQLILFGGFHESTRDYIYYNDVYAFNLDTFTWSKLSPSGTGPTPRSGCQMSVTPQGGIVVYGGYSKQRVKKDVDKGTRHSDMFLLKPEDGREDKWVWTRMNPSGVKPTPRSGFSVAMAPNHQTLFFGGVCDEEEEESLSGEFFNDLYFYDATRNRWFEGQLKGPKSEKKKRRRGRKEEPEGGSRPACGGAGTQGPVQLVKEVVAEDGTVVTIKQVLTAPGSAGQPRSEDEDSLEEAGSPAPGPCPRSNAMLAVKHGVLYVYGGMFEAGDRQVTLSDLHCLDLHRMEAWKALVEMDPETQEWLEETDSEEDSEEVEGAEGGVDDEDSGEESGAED
UniProt Q96EM0: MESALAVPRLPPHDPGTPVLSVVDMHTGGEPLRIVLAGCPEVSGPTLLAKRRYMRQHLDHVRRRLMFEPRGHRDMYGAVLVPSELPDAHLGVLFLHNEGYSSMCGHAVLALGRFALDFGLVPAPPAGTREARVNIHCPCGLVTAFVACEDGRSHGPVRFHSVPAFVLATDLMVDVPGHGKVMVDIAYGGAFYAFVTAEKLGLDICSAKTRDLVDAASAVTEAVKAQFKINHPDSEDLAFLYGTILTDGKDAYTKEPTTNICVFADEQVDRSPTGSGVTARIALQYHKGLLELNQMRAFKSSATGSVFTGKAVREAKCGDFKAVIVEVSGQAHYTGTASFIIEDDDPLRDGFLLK
UniProt Q9H9P8: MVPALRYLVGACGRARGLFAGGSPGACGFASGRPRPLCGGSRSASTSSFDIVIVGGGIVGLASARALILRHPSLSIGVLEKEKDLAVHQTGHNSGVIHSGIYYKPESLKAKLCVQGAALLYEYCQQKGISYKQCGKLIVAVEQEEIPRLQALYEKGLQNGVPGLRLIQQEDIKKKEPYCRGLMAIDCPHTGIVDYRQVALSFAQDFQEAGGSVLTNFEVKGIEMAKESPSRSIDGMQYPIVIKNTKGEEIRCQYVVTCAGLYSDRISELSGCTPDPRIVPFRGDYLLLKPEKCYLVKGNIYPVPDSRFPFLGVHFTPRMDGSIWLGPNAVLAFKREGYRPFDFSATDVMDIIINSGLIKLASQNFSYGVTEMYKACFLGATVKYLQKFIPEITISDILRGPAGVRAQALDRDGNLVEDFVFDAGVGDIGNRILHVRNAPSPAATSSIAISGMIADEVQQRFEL
UniProt Q9P2J5: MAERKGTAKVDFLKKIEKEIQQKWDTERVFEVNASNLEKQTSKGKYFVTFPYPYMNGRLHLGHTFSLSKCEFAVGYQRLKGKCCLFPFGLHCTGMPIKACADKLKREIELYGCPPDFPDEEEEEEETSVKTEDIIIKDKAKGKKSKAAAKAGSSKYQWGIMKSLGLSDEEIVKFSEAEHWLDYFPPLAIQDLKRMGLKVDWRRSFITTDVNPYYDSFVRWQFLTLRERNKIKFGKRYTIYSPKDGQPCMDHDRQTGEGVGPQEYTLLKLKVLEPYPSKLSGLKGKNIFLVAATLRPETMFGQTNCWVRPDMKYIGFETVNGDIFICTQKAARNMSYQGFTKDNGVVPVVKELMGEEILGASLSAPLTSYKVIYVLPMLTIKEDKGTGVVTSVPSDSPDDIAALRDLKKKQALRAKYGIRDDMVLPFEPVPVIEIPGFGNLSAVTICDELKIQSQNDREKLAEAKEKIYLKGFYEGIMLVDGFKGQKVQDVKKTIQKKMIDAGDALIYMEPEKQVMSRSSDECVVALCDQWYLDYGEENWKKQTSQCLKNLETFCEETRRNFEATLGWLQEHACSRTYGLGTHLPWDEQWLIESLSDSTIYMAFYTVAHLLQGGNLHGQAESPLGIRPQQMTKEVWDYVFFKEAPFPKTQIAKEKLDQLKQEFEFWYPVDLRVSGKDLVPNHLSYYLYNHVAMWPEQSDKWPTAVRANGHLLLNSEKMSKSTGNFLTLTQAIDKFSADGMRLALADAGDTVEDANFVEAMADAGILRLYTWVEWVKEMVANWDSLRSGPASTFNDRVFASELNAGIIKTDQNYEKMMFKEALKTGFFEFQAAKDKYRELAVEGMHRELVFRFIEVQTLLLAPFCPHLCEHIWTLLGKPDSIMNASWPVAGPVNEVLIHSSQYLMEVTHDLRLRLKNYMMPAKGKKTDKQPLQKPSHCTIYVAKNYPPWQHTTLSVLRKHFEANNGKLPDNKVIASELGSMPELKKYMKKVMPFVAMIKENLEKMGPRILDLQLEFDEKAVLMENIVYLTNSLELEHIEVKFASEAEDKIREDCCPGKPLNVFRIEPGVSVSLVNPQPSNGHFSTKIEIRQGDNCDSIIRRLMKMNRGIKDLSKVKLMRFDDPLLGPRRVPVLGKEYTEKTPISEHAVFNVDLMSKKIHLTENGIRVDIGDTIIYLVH
UniProt Q9UIC8: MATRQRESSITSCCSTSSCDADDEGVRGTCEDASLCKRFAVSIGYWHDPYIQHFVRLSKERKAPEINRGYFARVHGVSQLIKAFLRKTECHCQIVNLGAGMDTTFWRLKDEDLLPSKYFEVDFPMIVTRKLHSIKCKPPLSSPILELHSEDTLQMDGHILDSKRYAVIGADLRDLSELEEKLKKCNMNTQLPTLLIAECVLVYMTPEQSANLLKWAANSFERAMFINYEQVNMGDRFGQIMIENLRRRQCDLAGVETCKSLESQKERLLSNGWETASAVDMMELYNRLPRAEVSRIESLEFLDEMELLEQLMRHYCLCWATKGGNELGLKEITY
UniProt Q9NSK0: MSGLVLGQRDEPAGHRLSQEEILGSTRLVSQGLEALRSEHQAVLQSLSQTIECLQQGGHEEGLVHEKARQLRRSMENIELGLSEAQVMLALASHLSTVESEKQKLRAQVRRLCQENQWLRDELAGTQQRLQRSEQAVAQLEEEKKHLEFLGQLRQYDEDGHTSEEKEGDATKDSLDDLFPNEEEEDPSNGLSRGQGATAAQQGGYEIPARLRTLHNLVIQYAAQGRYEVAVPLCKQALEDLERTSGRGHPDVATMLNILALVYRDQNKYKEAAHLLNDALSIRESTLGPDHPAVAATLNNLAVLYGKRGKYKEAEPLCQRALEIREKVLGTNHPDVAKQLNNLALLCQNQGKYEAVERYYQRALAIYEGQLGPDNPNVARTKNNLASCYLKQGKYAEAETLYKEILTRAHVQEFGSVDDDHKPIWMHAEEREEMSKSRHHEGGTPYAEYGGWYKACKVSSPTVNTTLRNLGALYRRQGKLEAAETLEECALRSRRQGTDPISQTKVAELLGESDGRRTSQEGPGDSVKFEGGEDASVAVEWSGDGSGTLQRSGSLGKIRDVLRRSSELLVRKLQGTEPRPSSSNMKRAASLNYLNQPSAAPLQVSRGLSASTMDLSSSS
UniProt Q96Q89: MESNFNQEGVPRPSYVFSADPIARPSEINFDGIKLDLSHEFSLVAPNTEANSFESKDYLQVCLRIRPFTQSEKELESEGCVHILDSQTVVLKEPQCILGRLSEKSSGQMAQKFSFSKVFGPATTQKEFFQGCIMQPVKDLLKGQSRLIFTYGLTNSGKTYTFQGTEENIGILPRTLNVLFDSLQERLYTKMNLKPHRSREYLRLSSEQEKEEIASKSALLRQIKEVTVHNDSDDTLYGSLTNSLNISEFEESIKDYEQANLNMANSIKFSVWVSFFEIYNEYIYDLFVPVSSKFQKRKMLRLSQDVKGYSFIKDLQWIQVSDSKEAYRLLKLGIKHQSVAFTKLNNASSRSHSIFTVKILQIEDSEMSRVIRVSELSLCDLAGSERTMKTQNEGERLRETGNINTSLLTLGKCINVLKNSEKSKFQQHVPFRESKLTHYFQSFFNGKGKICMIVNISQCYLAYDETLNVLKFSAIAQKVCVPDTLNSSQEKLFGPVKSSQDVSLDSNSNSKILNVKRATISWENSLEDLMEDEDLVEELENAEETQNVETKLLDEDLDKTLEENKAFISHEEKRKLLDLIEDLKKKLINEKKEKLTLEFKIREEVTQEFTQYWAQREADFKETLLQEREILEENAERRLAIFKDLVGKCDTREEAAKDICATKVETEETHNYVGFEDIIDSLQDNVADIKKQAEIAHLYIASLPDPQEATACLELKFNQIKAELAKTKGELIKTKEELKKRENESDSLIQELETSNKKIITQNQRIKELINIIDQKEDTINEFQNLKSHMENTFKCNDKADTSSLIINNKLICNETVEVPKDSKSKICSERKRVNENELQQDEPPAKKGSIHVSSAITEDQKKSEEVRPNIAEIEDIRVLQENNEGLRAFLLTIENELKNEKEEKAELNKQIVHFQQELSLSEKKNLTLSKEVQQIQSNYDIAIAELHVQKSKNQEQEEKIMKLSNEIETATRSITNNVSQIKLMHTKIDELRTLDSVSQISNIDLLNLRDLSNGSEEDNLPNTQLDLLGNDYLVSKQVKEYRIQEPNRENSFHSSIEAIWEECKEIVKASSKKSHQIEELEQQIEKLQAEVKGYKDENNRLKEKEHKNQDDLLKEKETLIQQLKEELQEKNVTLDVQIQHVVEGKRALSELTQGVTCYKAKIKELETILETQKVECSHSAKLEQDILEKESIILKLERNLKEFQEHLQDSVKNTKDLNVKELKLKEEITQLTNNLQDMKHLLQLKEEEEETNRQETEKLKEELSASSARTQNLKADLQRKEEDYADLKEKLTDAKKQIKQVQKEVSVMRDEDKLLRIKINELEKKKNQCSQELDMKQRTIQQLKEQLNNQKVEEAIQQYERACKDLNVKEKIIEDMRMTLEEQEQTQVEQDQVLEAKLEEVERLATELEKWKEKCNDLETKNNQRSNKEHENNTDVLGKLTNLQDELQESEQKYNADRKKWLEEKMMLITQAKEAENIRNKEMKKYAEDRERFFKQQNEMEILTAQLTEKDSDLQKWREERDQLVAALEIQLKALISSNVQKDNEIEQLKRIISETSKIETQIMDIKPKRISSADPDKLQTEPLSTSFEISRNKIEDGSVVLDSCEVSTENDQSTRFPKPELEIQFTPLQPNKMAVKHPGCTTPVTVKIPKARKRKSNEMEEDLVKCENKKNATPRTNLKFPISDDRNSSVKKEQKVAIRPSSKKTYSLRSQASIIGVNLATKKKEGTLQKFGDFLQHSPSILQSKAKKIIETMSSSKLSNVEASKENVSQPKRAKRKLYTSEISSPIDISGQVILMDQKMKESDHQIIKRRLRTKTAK
UniProt Q9Y4W2: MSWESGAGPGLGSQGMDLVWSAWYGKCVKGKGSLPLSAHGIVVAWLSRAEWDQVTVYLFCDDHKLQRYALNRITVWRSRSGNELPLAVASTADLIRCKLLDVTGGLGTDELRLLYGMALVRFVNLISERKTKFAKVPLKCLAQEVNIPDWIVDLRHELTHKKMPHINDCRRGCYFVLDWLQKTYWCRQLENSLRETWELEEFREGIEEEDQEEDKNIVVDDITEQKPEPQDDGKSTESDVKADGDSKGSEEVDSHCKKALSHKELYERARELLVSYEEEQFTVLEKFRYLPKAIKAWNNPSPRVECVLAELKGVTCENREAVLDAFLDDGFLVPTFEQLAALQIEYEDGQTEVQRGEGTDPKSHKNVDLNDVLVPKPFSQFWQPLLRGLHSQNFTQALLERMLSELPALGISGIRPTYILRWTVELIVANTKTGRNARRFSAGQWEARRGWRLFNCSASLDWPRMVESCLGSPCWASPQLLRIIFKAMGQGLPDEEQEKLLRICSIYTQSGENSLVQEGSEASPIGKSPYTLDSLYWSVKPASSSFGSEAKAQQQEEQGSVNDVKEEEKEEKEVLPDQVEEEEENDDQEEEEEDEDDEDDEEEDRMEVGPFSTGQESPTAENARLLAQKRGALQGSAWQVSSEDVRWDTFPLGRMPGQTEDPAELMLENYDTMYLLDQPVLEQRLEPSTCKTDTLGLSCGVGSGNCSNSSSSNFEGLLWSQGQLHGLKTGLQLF
UniProt Q07866: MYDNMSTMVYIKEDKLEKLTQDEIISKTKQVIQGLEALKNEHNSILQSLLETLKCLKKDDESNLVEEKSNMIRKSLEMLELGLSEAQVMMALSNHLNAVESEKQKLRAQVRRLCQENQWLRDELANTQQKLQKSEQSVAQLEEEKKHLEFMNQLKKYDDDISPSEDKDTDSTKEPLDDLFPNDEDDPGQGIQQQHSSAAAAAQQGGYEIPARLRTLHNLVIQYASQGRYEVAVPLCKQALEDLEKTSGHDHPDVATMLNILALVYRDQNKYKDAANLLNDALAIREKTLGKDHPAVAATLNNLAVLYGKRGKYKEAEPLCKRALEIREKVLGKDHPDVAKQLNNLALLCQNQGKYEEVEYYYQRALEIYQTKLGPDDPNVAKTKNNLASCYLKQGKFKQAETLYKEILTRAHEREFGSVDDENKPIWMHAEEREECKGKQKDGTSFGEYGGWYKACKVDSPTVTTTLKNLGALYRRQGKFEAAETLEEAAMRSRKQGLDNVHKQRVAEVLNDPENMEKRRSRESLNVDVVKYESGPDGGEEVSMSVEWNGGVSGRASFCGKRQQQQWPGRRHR

Compound: CC1Cc2ccccc2N1C(=O)C1CCCN(C1)C(=O)CCl (mixture of isomers) [TRIM25 ligand 11 (diastereomer mixture)]
Assay: probe-labelled cysteine peptide fold change vs DMSO (competition) (log2 fold change); higher = less target engagement (more negative = stronger competition)
Conditions: THP-1, incubation time: 4 h
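Note: competitive chemoproteomic profiling in live THP-1 cells with an iodoacetamide desthiobiotin (IA-DTB) probe, comparing probe-labelled peptide intensities in compound-treated cells against DMSO-treated controls.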

| Target | probe-labelled cysteine peptide fold change (10 µM) | probe-labelled cysteine peptide fold change (50 µM) |
| --- | --- | --- |
| KIF4A_O95239_443_QHAACK (UniProt O95239) | -0.0695 | -0.0114 |
| KLC3_Q6P597_314_EAEPLCQR (UniProt Q6P597) | 0.105 | 0.11 |
| KLHDC4_Q8TBB5_465_QVTLSDLHCLDLHR (UniProt Q8TBB5) | -0.0961 | -0.155 |
| KNL1_Q8NG31_1407_GQLDCVITLHK (UniProt Q8NG31) | 0.02 | 0.0193 |
| L3HYPDH_Q96EM0_205_LGLDICSAK (UniProt Q96EM0) | 0.113 | 0.229 |
| L2HGDH_Q9H9P8_187_GLMAIDCPHTGIVDYR (UniProt Q9H9P8) | 0.101 | 0.187 |
| L3MBTL3_Q96JM7_583_HLGPHSAANCPYSEINLNK (UniProt Q96JM7) | 0.0731 | 0.097 |
| LCORL_Q8N3X6_193_NGSIGPSIVCK (UniProt Q8N3X6) | 0.0711 | -0.0509 |
| LAMTOR5_O43504_33_NPSIVGVLCTDSQGLNLGCR (UniProt O43504) | -0.337 | 0.0746 |
| KRR1_Q13601_102_ALNEHHVNATLDLIEGSMTVCTTK (UniProt Q13601) | -0.0373 | 0.121 |
| KIF2C_Q99661_40_SCVSVEWAEGGATK (UniProt Q99661) | 0.0221 | 0.00403 |
| KLHL26_Q53HC5_603_DLHFPESFAGIACAPVLLPR (UniProt Q53HC5) | 0.481 | -0.228 |
| KIFC1_Q9BW19_663_VNQCVIGTAQANRK (UniProt Q9BW19) | -0.103 | -0.113 |
| LCP1_P13796_101_KEGICAIGGTSEQSSVGTQHSYSEEEK (UniProt P13796) | 0.0278 | -0.306 |
| LARS_Q9P2J5_573_RNFEATLGWLQEHACSR (UniProt Q9P2J5) | -0.161 | -0.0673 |
| LAMTOR5_O43504_66_LTSDPTDIPVVCLESDNGNIMIQK (UniProt O43504) | 0.113 | -0.281 |
| KLHL11_Q9NVR0_526_AVITCYDTETR (UniProt Q9NVR0) | 0.134 | 0.211 |
| L2HGDH_Q9H9P8_376_ACFLGATVK (UniProt Q9H9P8) | 0.213 | 0.293 |
| KIF2C_Q99661_473_SHACFQIILR (UniProt Q99661) | -0.081 | -0.125 |
| LCMT1_Q9UIC8_136_CKPPLSSPILELHSEDTLQMDGHILDSKR (UniProt Q9UIC8) | -0.147 | 0.00231 |
| KPNB1_Q14974_345_GALQYLVPILTQTLTKQDENDDDDDWNPCK (UniProt Q14974) | -0.0833 | -0.245 |

| Target | probe-labelled cysteine peptide fold change (10 µM) | probe-labelled cysteine peptide fold change (50 µM) |
| --- | --- | --- |
| KNL1_Q8NG31_638_SSSDECEEITK (UniProt Q8NG31) | -0.196 | -0.173 |
| LARS_Q9P2J5_573_NFEATLGWLQEHACSR (UniProt Q9P2J5) | -0.00584 | -0.174 |
| KYNU_Q16719_401_GCQLTITFSVPNK (UniProt Q16719) | -0.0576 | 0.034 |
| LARS_Q9P2J5_248_DGQPCMDHDR (UniProt Q9P2J5) | 0.0762 | 0.0653 |
| KLHL15_Q96M94_588_LDGLQVCNLHFPDYVLDEVRR (UniProt Q96M94) | 0.0637 | -0.157 |
| KLHL42_Q9P2K6_444_SGLNLTCALHNDGIYIMSR (UniProt Q9P2K6) | 0.123 | 0.133 |
| KIF2A_O00139_309_GMATCFAYGQTGSGK (UniProt O00139) | 0.00291 | -0.0292 |
| KLHL26_Q53HC5_480_ALHCYDPVADQWEFK (UniProt Q53HC5) | -0.0482 | -0.0399 |
| LARP7_Q4G0J3_148_CGNVVYISIPHYK (UniProt Q4G0J3) | -0.0903 | -0.087 |
| L1RE1_Q9UN81_111_CDQLEER (UniProt Q9UN81) | -0.4 | 0.0961 |
| KLHDC4_Q8TBB5_58_RTQTVELPCPPPSPR (UniProt Q8TBB5) | 0.00723 | -0.0257 |
| LDHB_P07195_36_ITVVGVGQVGMACAISILGK (UniProt P07195) | -0.0702 | -0.0641 |
| KPNA4_O00629_417_KDQVAYLIQQNVIPPFCNLLTVK (UniProt O00629) | 0.0986 | -0.0199 |
| KNL1_Q8NG31_2338_QIYQDLFQDCHFYH (UniProt Q8NG31) | -0.126 | -0.0766 |
| LDHD_Q86WU2_310_IEFLDEVMMDACNR (UniProt Q86WU2) | 0.12 | 0.297 |
| LCMT1_Q9UIC8_136_CKPPLSSPILELHSEDTLQMDGHILDSK (UniProt Q9UIC8) | 0.0129 | -0.112 |
| KLC4_Q9NSK0_489_LEAAETLEECALR (UniProt Q9NSK0) | 0.12 | 0.000758 |
| L3MBTL2_Q969R5_446_LEAIDPLNLGNICVATVCK (UniProt Q969R5) | 0.279 | 0.277 |
| KLHL22_Q53GT1_11_AEEQEFTQLCK (UniProt Q53GT1) | -0.0302 | -0.0351 |
| LCP1_P13796_618_MVMTVFACLMGK (UniProt P13796) | -0.236 | -0.0702 |
| KTN1_Q86UP2_1105_ECMAGTSGSEEVK (UniProt Q86UP2) | -0.163 | -0.358 |

| Target | probe-labelled cysteine peptide fold change (10 µM) | probe-labelled cysteine peptide fold change (50 µM) |
| --- | --- | --- |
| LARS_Q9P2J5_70_CEFAVGYQR (UniProt Q9P2J5) | 0.0939 | -0.0463 |
| KIF20B_Q96Q89_1330_NQCSQELDMK (UniProt Q96Q89) | -0.167 | 0.00626 |
| KPNA3_O00505_417_DQVEYLVQQNVIPPFCNLLSVK (UniProt O00505) | 0.0868 | 0.14 |
| L3MBTL3_Q96JM7_723_WSTDEVSEFIQSLPGCEEHGK (UniProt Q96JM7) | 0.0157 | 0.25 |
| KNTC1_P50748_2198_HCGKPVPPDTAPCEILK (UniProt P50748) | -0.0749 | -0.0603 |
| LAS1L_Q9Y4W2_169_KMPHINDCRR (UniProt Q9Y4W2) | -0.358 | -0.311 |
| KIF2A_O00139_406_CVEDVLK (UniProt O00139) | -0.127 | 0.227 |
| KTI12_Q96EK9_107_TPLCLVYCVRPGGPIAGPQVAGANENPGR (UniProt Q96EK9) | -0.238 | -0.014 |
| KRR1_Q13601_142_ILQDDVACDIIK (UniProt Q13601) | 0.0733 | 0.0664 |
| KPNB1_Q14974_223+228_HFIMQVVCEATQCPDTR (UniProt Q14974) | 0.163 | 0.0725 |
| KIF2C_Q99661_154_QFSVPPAPTRPSCPAVAEIPLR (UniProt Q99661) | -0.0599 | -0.166 |
| LDHD_Q86WU2_384_HNAWYAALATRPGCK (UniProt Q86WU2) | -0.113 | -0.113 |
| LANCL1_O43813_363_FAEWCLEYGEHGCR (UniProt O43813) | 0.041 | 0.0992 |
| LCOR_Q96JN0-3_531_ASCSALASEAVFTPK (UniProt Q96JN0) | -0.0661 | -0.21 |
| KPNA1_P52294_424_YLVELGCIK (UniProt P52294) | 0.213 | 0.184 |
| KLC2_Q9H0B6_474_LEAAHTLEDCASR (UniProt Q9H0B6) | -0.0419 | -0.0206 |
| KMT2A_Q03164_1194_CQNLQWMPSK (UniProt Q03164) | -0.0867 | -0.0567 |
| KMT2D_O14686_5338_HPLMELPLMINPTGCAR (UniProt O14686) | -0.039 | 0.367 |
| LACTB2_Q53H82_58_RILIDTGEPAIPEYISCLK (UniProt Q53H82) | -0.0382 | -0.079 |
| KLHL8_Q9P2G9_590_IFAVGGHNGNAYLNTVEAFDPVLNRWELVGSVSHCR (UniProt Q9P2G9) | 0.358 | 0.161 |
| KIF20B_Q96Q89_80_ELESEGCVHILDSQTVVLK (UniProt Q96Q89) | 0.118 | 0.143 |

| Target | probe-labelled cysteine peptide fold change (10 µM) | probe-labelled cysteine peptide fold change (50 µM) |
| --- | --- | --- |
| LARP1_Q6PKG0_502_REEPEKWPLPPIVDYSQTDFSQLLNCPEFVPR (UniProt Q6PKG0) | -0.217 | -0.354 |
| KNTC1_P50748_1892_ALQCLFYLADK (UniProt P50748) | 0.211 | 0.229 |
| KTN1_Q86UP2_1136_EADEMHTLLQLECEK (UniProt Q86UP2) | 0.0345 | 0.156 |
| KRIT1_O00522_297_SACEGDSELLSR (UniProt O00522) | 0.101 | -0.0711 |
| KLC1_Q07866_390_NNLASCYLK (UniProt Q07866) | -0.2 | -0.00724 |
| LCP1_P13796_164_HVIPMNPNTNDLFNAVGDGIVLCK (UniProt P13796) | -0.0358 | -0.0341 |
| KMT5B_Q4FZB7_54_CNGNSGFEGQSR (UniProt Q4FZB7) | -0.166 | -0.314 |
| L3HYPDH_Q96EM0_148_VNIHCPCGLVTAFVACEDGR (UniProt Q96EM0) | 0.416 | 0.338 |
| LAS1L_Q9Y4W2_456_LFNCSASLDWPR (UniProt Q9Y4W2) | 0.0525 | 0.142 |
| KNOP1_Q1ED39_184_DVGDTCSVGK (UniProt Q1ED39) | -0.128 | -0.343 |
| KIF4A_O95239_977_EVCEQNQQLLR (UniProt O95239) | 0.179 | -0.208 |
| LANCL1_O43813_252_LHSLVKPSVDYVCQLK (UniProt O43813) | -0.00553 | 0.226 |
| KLC4_Q9NSK0_489_QGKLEAAETLEECALR (UniProt Q9NSK0) | -0.233 | -0.291 |
| KLHL6_Q8WZ60_252_LCLLPYVLENVR (UniProt Q8WZ60) | 0.147 | -0.0158 |
| KPNB1_Q14974_345_QDENDDDDDWNPCK (UniProt Q14974) | 0.078 | 0.0516 |
| L3HYPDH_Q96EM0_139_VNIHCPCGLVTAFVACEDGR (UniProt Q96EM0) | -0.347 | 0.0247 |
| KLC1_Q07866-4_621_NNCLADSR (UniProt Q07866) | -0.13 | -0.168 |
| KIF21B_O75037_203_LIHSQEELIQCLK (UniProt O75037) | 0.154 | 0.11 |
| KPNB1_Q14974_667_NYAEYQVCLAAVGLVGDLCR (UniProt Q14974) | 0.21 | 0.214 |
| LCMT2_O60294_396_DCDSEWK (UniProt O60294) | 0.0776 | 0.162 |
| KRI1_Q8N9T8_667_LLGPTVMLGGCEFSR (UniProt Q8N9T8) | -0.0896 | -0.0608 |
